PubChem BioAssay AID602196 | INSERM | 2012

Assay: 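Genes whose knock-down alters cisplatin killing of lung cancer cells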
Cells: human A549 lung cancer cells
Reagent: siRNA pair against human genes
Timing: 48 h transfection before cisplatin; time from cisplatin to read-out not stated
Challenge: cisplatin at a dose killing half of control-siRNA cells; exact dose and duration not given
Detection: 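Cisplatin cell death as a shift from the 50% death seen with control siRNA; siRNAs toxic or growth-blocking alone scored 0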
Reading the numbers: two-siRNA summed score (-2 to +2): higher = both siRNAs protect from cisplatin killing; -2 means both sensitise; mean protection from cisplatin (shift in death) and protection from cisplatin (shift in death), siRNA C and protection from cisplatin (shift in death), siRNA D: higher = protection from cisplatin killing
Active means: 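Each siRNA scores 0 if harmful alone by LDH or WST-1, otherwise +1 if it reduces and -1 if it increases cisplatin killing; a gene is active when both siRNAs agree (sum +2 or -2)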
Meaning of the calls: active = both siRNAs shift cisplatin killing the same way; inactive = no consistent shift, or siRNA harmful alone
The deposit covers about 23,000 reagents; shown is an unselected part. 455 of all reagents (2%) count as active. 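Active includes both protection and sensitisation; some change values fall well beyond the stated -50 to +50 range.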 Reagents against one gene are numbered here. No sequences are given here. Not stated in the record: the amount of reagent.

no.	gene knocked down	reagent no.	two-siRNA summed score (-2 to +2)	mean protection from cisplatin (shift in death) (%)	protection from cisplatin (shift in death), siRNA C (%)	protection from cisplatin (shift in death), siRNA D (%)	call
1	L3MBTL2	1	0	-2.6	1.1	-6.3	inactive
2	SAP30	1	0	6.2	21.8	-9.4	inactive
3	CARNMT1	1	0	9.1	5.5	12.7	inactive
4	SYNGR3	1	0	16.7	31	2.4	inactive
5	BDH2	1	1	10.8	20.2	1.3	inactive
6	CAPN1	1	-1	-13.9	-28.3	0.5	inactive
7	DDC	1	0	3.4	19.3	-12.5	inactive
8	ODF2	1	0	4.6	-0.2	9.5	inactive
9	IL32	1	0	15.4	10.2	20.7	inactive
10	IL32	2	2	20.1	20.2	20.1	active
11	TRIM58	1	0	1.5	1	2	inactive
12	MARCHF7	1	0	-0.6	-13.5	12.3	inactive
13	LOC387710	1	1	8.1	18.3	-2.1	inactive
14	LOC391656	1	1	15.3	26.3	4.3	inactive
15	MYO7B	1	0	15.8	7.2	24.3	inactive
16	CHCHD5	1	0	22.8	5.6	40	inactive
17	ATP8B4	1	0	-10.4	-8.7	-12.2	inactive
18	TPBG	1	0	11.3	6.9	15.6	inactive
19	PTHLH	1	0	-2.9	-6.4	0.6	inactive
20	MPC2	1	1	8.6	4.3	12.8	inactive
21	RBBP6	1	0	-0.7	-6.6	5.1	inactive
22	RNF144A	1	-1	-14.3	-25.2	-3.4	inactive
23	LOC391248	1	0	1	-8	10	inactive
24	FASLG	1	0	6.9	9.6	4.2	inactive
25	SYNRG	1	0	6.1	-4.9	17.1	inactive
26	ERAS	1	0	1	-4.8	6.7	inactive
27	LOC343221	1	-1	-4.9	4.2	-13.9	inactive
28	LOC440611	1	2	22.2	20.2	24.2	active
29	LOC440593	1	0	14.2	29.1	-0.8	inactive
30	HSD17B4	1	-1	-7.6	-16.6	1.3	inactive
31	LOC388333	1	0	5.8	-2.8	14.5	inactive
32	PEX6	1	0	9.4	-7.5	26.3	inactive
33	LOC284409	1	0	7.1	7.8	6.4	inactive
34	ZNF580	1	0	19.7	27.2	12.1	inactive
35	PVT1	1	0	-6.2	1.4	-13.8	inactive
36	RPL7L1	1	0	3	-3.5	9.6	inactive
37	TARBP1	1	0	7	0.1	14	inactive
38	LOC442613	1	0	16.2	30	2.4	inactive
39	POLR2A	1	0	-6.9	3.4	-17.3	inactive
40	TOGARAM1	1	0	0.7	-7.8	9.2	inactive
41	MYL11	1	0	3.4	-3	9.7	inactive
42	PDE9A	1	-1	5.5	-25.7	36.8	inactive
43	GET1	1	0	0.3	-5.4	6	inactive
44	ACTG1	1	0	-5.6	-5.6	-5.7	inactive
45	LOC96597	1	0	3.7	2.7	4.8	inactive
46	LRP4	1	0	-4.3	-13.3	4.8	inactive
47	LOC440501	1	1	10.9	15.3	6.4	inactive
48	LOC440554	1	0	4.2	3	5.4	inactive
49	PLCB1	1	0	-32	-13.2	-50.7	inactive
50	KIF27P2	1	0	11.8	15.5	8.1	inactive
51	COPS4	1	0	-0.3	1.8	-2.4	inactive
52	KLHL12	1	0	14.4	17	11.8	inactive
53	AJAP1	1	0	12	5.5	18.6	inactive
54	LOC441959	1	1	9.6	14.8	4.4	inactive
55	LOC400852	1	0	7.4	18.5	-3.8	inactive
56	HPD	1	0	-6.9	-14.9	1	inactive
57	LOC391165	1	0	0.4	-16.7	17.6	inactive

5 entries from above, reformatted.
{"gene knocked down": "KIF27P2", "reagent no.": 1, "two-siRNA summed score (-2 to +2)": 0, "mean protection from cisplatin (shift in death) (%)": 11.8, "protection from cisplatin (shift in death), siRNA C (%)": 15.5, "protection from cisplatin (shift in death), siRNA D (%)": 8.1, "call": "inactive"}
{"gene knocked down": "COPS4", "reagent no.": 1, "two-siRNA summed score (-2 to +2)": 0, "mean protection from cisplatin (shift in death) (%)": -0.3, "protection from cisplatin (shift in death), siRNA C (%)": 1.8, "protection from cisplatin (shift in death), siRNA D (%)": -2.4, "call": "inactive"}
{"gene knocked down": "KLHL12", "reagent no.": 1, "two-siRNA summed score (-2 to +2)": 0, "mean protection from cisplatin (shift in death) (%)": 14.4, "protection from cisplatin (shift in death), siRNA C (%)": 17, "protection from cisplatin (shift in death), siRNA D (%)": 11.8, "call": "inactive"}
{"gene knocked down": "AJAP1", "reagent no.": 1, "two-siRNA summed score (-2 to +2)": 0, "mean protection from cisplatin (shift in death) (%)": 12, "protection from cisplatin (shift in death), siRNA C (%)": 5.5, "protection from cisplatin (shift in death), siRNA D (%)": 18.6, "call": "inactive"}
{"gene knocked down": "LOC441959", "reagent no.": 1, "two-siRNA summed score (-2 to +2)": 1, "mean protection from cisplatin (shift in death) (%)": 9.6, "protection from cisplatin (shift in death), siRNA C (%)": 14.8, "protection from cisplatin (shift in death), siRNA D (%)": 4.4, "call": "inactive"}
